Article PMC9541495, “Understanding the interaction of 14‐3‐3 proteins with hDMX and hDM2: a structural and biophysical study” (The Febs Journal, 2022)
No constants are given. Whether binding was seen depends on the method and setting. Some entries that bind do so weakly or less than the wild type.

T1: 14‐3‐3σ∆C (human) (UniProt P31947)
T1 sequence: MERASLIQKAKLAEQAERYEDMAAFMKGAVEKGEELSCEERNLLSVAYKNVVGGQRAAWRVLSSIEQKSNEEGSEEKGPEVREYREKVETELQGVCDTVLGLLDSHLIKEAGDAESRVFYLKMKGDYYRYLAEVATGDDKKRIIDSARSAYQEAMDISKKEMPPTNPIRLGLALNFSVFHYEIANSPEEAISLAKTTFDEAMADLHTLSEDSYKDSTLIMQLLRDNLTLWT


Molecular target: T1, 14‐3‐3σ∆C (human)
Assay: crystal structure; 14-3-3σ∆C (12-14 mg/mL) incubated overnight with peptide in 1:2 molar ratio; crystals at 4 °C; molecular replacement with 4DAT; both purified

binding | Binder
binds | QRKRHKSDSISLS (phosphoserine at 186 (seventh residue); N-terminal acetyl; C-terminal amide) [Ac‐hDM2_(180‐192) ^pSer186]
binds | 14‐3‐3σ∆C (domain or fragment, UniProt P31947 1-231) MERASLIQKAKLAEQAERYEDMAAFMKGAVEKGEELSCEERNLLSVAYKNVVGGQRAAWRVLSSIEQKSNEEGSEEKGPEVREYREKVETELQGVCDTVLGLLDSHLIKEAGDAESRVFYLKMKGDYYRYLAEVATGDDKKRIIDSARSAYQEAMDISKKEMPPTNPIRLGLALNFSVFHYEIANSPEEAISLAKTTFDEAMADLHTLSEDSYKDSTLIMQLLRDNLTLWT
binds | DCRRTISAPVVRPK (phosphoserine at 367 (seventh residue); N-terminal acetyl; C-terminal amide) [Ac‐hDMX_(361‐374) ^pSer367]
binds | SKLTHSLSTSDITAIPEKENEGNDVPDCRRTISAPVVRP (phosphoserine at 342 and at 367; N-terminal acetyl; C-terminal amide) [Ac‐hDMX_(335‐373) ^pSer342/pSer367]
